Changes are numbered by the printed parent chain. No constants are given. Whether binding was seen depends on the method and setting. In cells and extracts the contact can be indirect. Binding calls can cover weak binding; strength is not graded here. Sequences can lack the tags named with a protein.
How the values were obtained:
Assay in all cases: co-IP; FLAG purification of Miro1/FP/FLAG/I3-01 synthetic cargo from hTERT RPE-1 cell lines co-expressing TRAK/mScarlet variants; immunoblot of the associated motor-adaptor components (kinesin, dynein, dynactin); also done after kinesin RNAi (fig. S4E)
[1] = molecular target: T1, TRAK2/mScarlet fusion protein (wild type) (UniProt O60296)
T1 sequence: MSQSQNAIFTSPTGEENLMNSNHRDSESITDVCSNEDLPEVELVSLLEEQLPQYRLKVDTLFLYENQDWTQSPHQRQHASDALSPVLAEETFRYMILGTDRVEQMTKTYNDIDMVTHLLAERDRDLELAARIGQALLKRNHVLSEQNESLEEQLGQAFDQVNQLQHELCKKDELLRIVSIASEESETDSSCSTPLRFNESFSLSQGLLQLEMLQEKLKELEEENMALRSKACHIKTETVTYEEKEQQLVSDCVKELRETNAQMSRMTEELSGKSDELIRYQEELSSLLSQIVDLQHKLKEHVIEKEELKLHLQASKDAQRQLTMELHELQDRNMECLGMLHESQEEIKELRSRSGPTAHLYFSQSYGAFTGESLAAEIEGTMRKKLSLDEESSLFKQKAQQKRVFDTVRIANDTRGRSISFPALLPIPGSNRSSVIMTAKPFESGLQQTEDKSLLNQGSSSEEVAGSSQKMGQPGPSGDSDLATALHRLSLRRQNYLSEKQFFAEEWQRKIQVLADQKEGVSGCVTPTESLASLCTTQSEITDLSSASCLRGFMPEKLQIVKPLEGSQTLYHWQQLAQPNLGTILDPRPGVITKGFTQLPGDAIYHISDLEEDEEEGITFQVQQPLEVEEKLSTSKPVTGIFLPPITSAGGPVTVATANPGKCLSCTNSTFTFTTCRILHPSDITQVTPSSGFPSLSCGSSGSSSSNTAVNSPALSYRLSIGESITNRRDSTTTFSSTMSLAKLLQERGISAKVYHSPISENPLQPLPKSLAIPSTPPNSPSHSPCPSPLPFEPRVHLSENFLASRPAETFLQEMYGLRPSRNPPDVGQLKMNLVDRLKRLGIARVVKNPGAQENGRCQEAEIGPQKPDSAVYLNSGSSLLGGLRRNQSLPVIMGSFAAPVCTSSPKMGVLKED

[2] = molecular target: T2, TRAK1 E242R (mScarlet fusion) (UniProt Q9UPV9)
T2 sequence: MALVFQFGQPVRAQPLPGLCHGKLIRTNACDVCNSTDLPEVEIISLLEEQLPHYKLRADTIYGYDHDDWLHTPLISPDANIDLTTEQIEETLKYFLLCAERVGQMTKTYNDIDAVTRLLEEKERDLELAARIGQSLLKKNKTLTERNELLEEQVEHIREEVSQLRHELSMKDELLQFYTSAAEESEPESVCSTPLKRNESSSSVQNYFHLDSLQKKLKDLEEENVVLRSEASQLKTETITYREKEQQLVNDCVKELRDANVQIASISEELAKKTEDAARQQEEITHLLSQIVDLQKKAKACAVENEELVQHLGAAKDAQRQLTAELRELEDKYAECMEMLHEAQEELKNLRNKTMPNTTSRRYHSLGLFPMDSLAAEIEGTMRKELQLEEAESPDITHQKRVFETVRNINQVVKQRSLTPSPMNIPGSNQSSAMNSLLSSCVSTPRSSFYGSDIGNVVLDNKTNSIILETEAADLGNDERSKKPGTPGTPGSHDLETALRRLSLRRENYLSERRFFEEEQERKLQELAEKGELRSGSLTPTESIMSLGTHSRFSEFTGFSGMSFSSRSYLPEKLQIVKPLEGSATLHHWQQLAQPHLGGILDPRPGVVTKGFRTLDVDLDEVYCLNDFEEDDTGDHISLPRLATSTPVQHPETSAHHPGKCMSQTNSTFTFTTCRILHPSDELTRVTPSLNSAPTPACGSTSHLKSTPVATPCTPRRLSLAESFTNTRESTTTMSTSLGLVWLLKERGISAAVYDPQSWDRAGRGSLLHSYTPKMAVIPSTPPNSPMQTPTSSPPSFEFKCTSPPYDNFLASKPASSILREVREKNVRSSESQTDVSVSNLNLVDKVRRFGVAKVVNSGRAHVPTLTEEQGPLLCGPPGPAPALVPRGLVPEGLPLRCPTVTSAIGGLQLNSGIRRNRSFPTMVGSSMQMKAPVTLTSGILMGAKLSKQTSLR

[3] = molecular target: T3, TRAK2 E242R (mScarlet fusion) (UniProt O60296)
T3 sequence: T1 sequence with E242R

Measured: binding

kinesin-1 (human (endogenous in hTERT RPE-1))
binds: all assays above

Source: PMC13545989
